Assay results taken from publication PMC10163288.
This is one part of the list.

B1: il10ra_site1_normal_mot_HHH_b2_01310_000000089_0001_41_55_H_._HHH_b2_04296_af2_0001_0000100005_0000002_0_af2pred_0001 (protein)
chain: SSSSSSELERLVEEIEELLEEGDDEEALRLLRELVRLAFELGDQEVLELALELAELLKELSSSSS
B2: il10ra_site1_normal_mot_HHH_b2_08186_000000021_0001_43_56_H_._HHH_b1_07279_0001_0000600053_0000001_0 (protein)
chain: SSSSSDEEEVRELLEEAEELARRGNPREALRVLLRALRIIFEAQNPELLQELWEVLKRVASSSSS
B3: il10ra_site1_sap_19_mot_HHH_b2_08144_af2_000000046_0001_38_52_H_._9bad734bde242972d24fe2fb55b42ac3_0001_0001_0000100001_0000002_0_0001 (protein)
chain: SSSSDREEIEELIKEIEELIEEGDQEEALQLLWELAKIVAELNDEEALERVQELERLIFRSSSSS
B4: il10ra_site1_sap_10_mot_HHH_b1_07571_000000144_0001_42_58_H_._HHH_b2_02979_0001_0000100010_0000002_0_0001 (protein)
chain: SSSSSSEIVRLAQELVRLAFEKGDEEALQAVWEAIVAWARGELSEEEVKELLEEAEELLSSSSSS
B5: il10ra_site1_sap_14_mot_564a9b831269b2f1d390e2a66eecb176_0001_1_af2_000000064_0001_36_49_H_._HHH_b1_02782_af2_0001_0000300012_0000001_0_0001 (protein)
chain: SSSSSSEEYEEEVRELLEEAERIEDERERNEVLLEALKLAIQGQDPELLRLVWRVVHRLSSSSSS
B6: il10ra_site1_normal_mot_HHH_b1_01879_000000050_0001_1_18_H_._HHH_b1_00882_0001_0000100001_0000001_0 (protein)
chain: SSSSDKEELLKLIARASALAARLNDKETEKRLFQLLIRFWRHGDPRYAEEAEELREELEGSSSSS
B7: il10ra_site1_normal_mot_HHH_b1_02062_000000185_0001_1_20_H_._HHH_b1_02799_af2_0001_0000300032_0000001_0 (protein)
chain: SSSSDELLQEVYELSREAAELDSDGDKEEAEKILEEAEEIAKELGNELFLFQVEYMLRLLKSSSS
B8: il10ra_site1_sap_11_mot_HHH_b1_01307_000000115_0001_1_18_H_._HHH_b1_05552_0001_0000400045_0000001_0_0001 (protein)
chain: SSSSSSEEEEEIRELLEEAEKTEDPREVAKLLLEAVQLAYELQDPELLREVWRVAKKLGSSSSSS
B9: il10ra_site1_sap_21_mot_HHH_b1_05860_000000142_0001_1_19_H_._HHH_b1_07135_af2_0001_0000500015_0000001_0_0001 (protein)
chain: SSSSSSDELLELARRAFRLLLRGDDEEARKILEELEELAEENNNERLLKVVRDMLKALNSSSSSS
B10: il10ra_site1_sap_5_mot_HHH_b1_06788_af2_000000238_0001_19_36_H_._0fbcb473b9ca24b82a5a132671845698_0001_af2_0001_0000100003_0000001_0_0001_af2pred_0001 (protein)
chain: SSSSDDEERLTKRLVESTLEWAKRASEEALEYVLRVAKHLAKALNDEELLKLVEEVEEELSSSSS
B11: il10ra_site1_normal_mot_HHH_b1_04015_af2_000000074_0001_1_17_H_._HHH_b1_04757_af2_0001_0000200012_0000001_0 (protein)
chain: SSSSDESEELTEKVEKELEELLERGDYEEAYKLLKRAIERLVELNDPEAARRLSQAFVKNSSSSS
B12: il10ra_site1_normal_mot_2c1a291787c6f40772924d4e9068d803_0001_af2_000000187_0001_34_48_H_._HHH_b1_04545_af2_0001_0000100008_0000001_0_af2pred_0001 (protein)
chain: SSSSSSEEERILRLLAEAWRLLQKGDPEEAEKLLEEALRLAEEINDEALRLAIELLLETLSSSSS
B13: il10ra_site1_sap_15_mot_HHH_b2_03183_af2_000000055_0001_40_56_H_._HHH_b1_01569_0001_0000100008_0000001_0_0001_af2pred_dldesign_0_af2pred (protein)
chain: SSSSSDPRAEVRRLLEEAKKLEDPEKRADVLRQATRLAWELGDAELIRLVAKVAAELEKSSSSSS
B14: il10ra_site1_normal_mot_HHH_b1_02116_000000087_0001_1_17_H_._HHH_b1_00365_af2_0001_0000200009_0000001_0_af2pred_0001 (protein)
chain: SSSSSSEEEYERVRELLERATQISDEEEVRELLEEARELAEELGSQNLRFVIEFLLRRLSSSSSS
B15: il10ra_site1_sap_15_mot_HHH_b2_00984_000000042_0001_1_20_H_._38696baa2df05fb6b55d0053d3ac79c4_0001_1_0001_0000700012_0000002_0_0001 (protein)
chain: SSSSSDATERLMELIRRAAELDQNGNPEEAEKVLEEAEELAEEEGNFAVLFAVRLLLEILSSSSS
B16: il10ra_site1_sap_21_mot_HHH_b1_06804_000000054_0001_40_54_H_._HHH_b2_03021_0001_0000100008_0000001_0_0001 (protein)
chain: PRNEVIQRLVRLAFREGDPELLRALWKLVELAKEGDPEAEELLEEVAELLKKDEEEAKRLLKELG
B17: il10ra_site1_normal_mot_HHH_b2_03220_af2_000000223_0001_23_40_H_._HHH_b2_00966_0001_0000200034_0000001_0 (protein)
chain: SSSSNEENEEIWRLIREALELLAEGDPEEAREVAEEAEELAREANNPVLLFAIRLLLRDINSSSS
B18: il10ra_site1_normal_mot_HHH_b1_00103_000000293_0001_1_15_H_._HHH_b2_03403_0001_0000200013_0000001_0_af2pred_0001 (protein)
chain: SSSSSSSEEIREVIKLLKKAWEIDDPEEAREVVQEAVELAEEAGDEELLKLARLLLKQLSSSSSS
B19: il10ra_site1_sap_24_mot_674797ffa33fc4f31d963a7257083862_0001_000000202_0001_1_12_H_._HHH_b2_05362_0001_0000300013_0000001_0_0001 (protein)
chain: SSSSSSDEASQEIMELLRRALQIEDPEEARELVEEALELAEENNNMLFLWQAEFLLKRLSSSSSS
B20: il10ra_site1_normal_mot_HHH_b1_01082_af2_000000031_0001_3_19_H_._HHH_b1_02728_af2_0001_0000300015_0000001_0 (protein)
chain: SSSSDELYELVKKVIEKVVELLRNGNPEEAREEIEKILEEVEELGNLVLLASLEHLLRLEFSSSS
B21: il10ra_site1_sap_26_mot_HHH_b1_03314_af2_000000278_0001_42_55_H_._HHH_b2_05136_0002_0000600012_0000001_0_0001_af2pred_dldesign_0_af2pred (protein)
chain: SSSSSSSPEEKAEELYKQYLAAKTEEEKQKLFQELLDLALKTECLKAAQLANEFLKEGSSSSSSS
B22: il10ra_site1_normal_mot_HHH_b1_05357_000000034_0001_23_39_H_._HHH_b2_01639_0001_0000100001_0000002_0 (protein)
chain: SSSSSSDSEEEVEELLEEAKQIEDRRRRSHVLIRAYAIANRANDPELEELVKKVAIELSSSSSSS
B23: il10ra_site1_normal_mot_HHH_b1_05357_000000034_0001_23_39_H_._HHH_b1_03126_0001_0000300035_0000001_1_af2pred_0001 (protein)
chain: SSSSSSEEIREEVEELLEQAKRIPDPRERAYALTRAFALANRLNDPELKKLVEEVAIKLSSSSSS
B24: il10ra_site1_normal_mot_HHH_b2_01397_000000078_0001_23_39_H_._HHH_b1_06054_0001_0000100013_0000001_0 (protein)
chain: SSSSDEEIRRYVKLTARFARFLLEEGDERAARRLVRAAEDVARRENDPELLEELQELLEELSSSS
B25: il10ra_site1_sap_22_mot_HHH_b1_05088_af2_000000046_0001_20_36_H_._HHH_b2_06324_0001_0000400020_0000001_0_0001_af2pred_0001 (protein)
chain: SSSSDREERDAKVTVRALVFYNNLSEEQEELLEELARELLERGVSLEELSRALAELVLELRSSSS
B26: il10ra_site1_sap_16_mot_HHH_b1_02641_af2_000000230_0001_39_52_H_._HHH_b2_05156_af2_0001_0001000022_0000001_0_0001 (protein)
chain: SSSSSSSAEEYLEEVEELLEEGNPEEALRLLVEALRVAYQESDEEALQALWRLAKRIASSSSSSS
B27: il10ra_site1_normal_mot_HHH_b2_05797_000000294_0001_1_19_H_._HHH_b2_04237_0001_0000300026_0000002_0 (protein)
chain: SSSSDLEEYVRAARLFAEALLEAGDPEAARRILRALLEVVRRLGNEELERLLEELLEEVEGSSSS
B28: il10ra_site1_normal_mot_HHH_b2_00475_000000107_0001_44_57_H_._HHH_b1_06647_af2_0001_0000500027_0000002_0 (protein)
chain: SSSSLEERVVELAFRAVRLLANGNPEEAEEVLKEAKELAEELNDEELERYVEIALHFVEAHSSSS
B29: il10ra_site1_normal_mot_HHH_b2_04275_000000272_0001_20_36_H_._HHH_b1_08416_0001_0000100012_0000002_0 (protein)
chain: SSSSTEASQLVYELLRKASELQHEGNEEEARELLEEAERIAEENNNEVLLATIRFLLELISSSSS
B30: il10ra_site1_normal_mot_HHH_b1_05326_000000242_0001_1_20_H_._HHH_b2_05780_af2_0001_0000300019_0000001_0 (protein)
chain: SSSSDEQERALEISVHAFRALLRGNPEEAEELLEEALELAEKNNDERLARLIRELLETIGSSSSS
B31: il10ra_site1_sap_20_mot_HHH_b2_03434_000000017_0001_1_19_H_._HHH_b2_07026_0001_0000200006_0000001_0_0001_af2pred_0001 (protein)
chain: SSSSNNEESVEILLRAAKELDDPEAVKRALKFAEAAAKDANNDELERLVREVKEQLEEELSSSSS
B32: il10ra_site1_sap_20_mot_HHH_b2_02736_000000092_0001_22_38_H_._HHH_b1_05484_0001_0000200010_0000001_0_0001 (protein)
chain: SSSSTLEYSVKFVLEVAEEAFKLGDEEKARYQLEAILEHIRQAGDEELLEEVEELLRELNSSSSS
B33: il10ra_site1_sap_19_mot_HHH_b2_03220_af2_000000223_0001_23_40_H_._HHH_b2_06349_af2_0001_0000100001_0000002_0_0001 (protein)
chain: SSSSSEEEELKELLEELEELVERGDEEKVLRAAHRILRLVFRLSDPEALERLWELMQRAGSSSSS
B34: il10ra_site1_normal_mot_8756ee2cf497b5429c717dfc0c0bcfd6_0001_000000186_0001_1_13_H_._HHH_b1_07178_af2_0001_0000300014_0000001_0_af2pred_0001 (protein)
chain: SSSSSSEEVLELLRRAMELAKEGNEEEAREVLEKAKELAEELNDRLLLFLIERLEEQLDSSSSSS
B35: il10ra_site1_normal_mot_HHH_b2_05813_000000266_0001_1_19_H_._HHH_b2_02271_af2_0001_0000100003_0000002_0_af2pred_dldesign_0_af2pred (protein)
chain: SSSSSPEEKKAFDTLVKAYQLEQAGKPEEAKKLLEETLAELRAAGDAEAARSLEALLRYLESSSS
B36: il10ra_site1_sap_23_mot_HHH_b1_05056_000000217_0001_1_20_H_._a6c796b944619e241e020fd597ddb6da_0001_0001_0000600034_0000001_0_0001 (protein)
chain: SSSSTHELYRLSREAAELLARGDAEEARKVVEEAEELAEENNNPVFLHAIRLLLRSIKLRSSSSS
B37: il10ra_site1_sap_17_mot_HHH_b1_06788_af2_000000238_0001_19_36_H_._HHH_b1_06164_af2_0001_0000500015_0000001_0_0001_af2pred_0001 (protein)
chain: SSSSNEEEKRLSQLYLEAARLWDEGNPEEAEKVTRELEELARELGDEEAKKAVEFLKALKSSSSS

The binders below were run against il10ra, Q13651 (assay: yeast display titration).

Apparent Kd, inactive:
B1 no binding seen
B2 no binding seen
B3 no binding seen
B4 no binding seen
B5 no binding seen
B6 no binding seen
B7 no binding seen
B8 no binding seen
B9 no binding seen
B10 no binding seen
B11 no binding seen
B12 no binding seen
B13 no binding seen
B14 no binding seen
B15 no binding seen
B16 no binding seen
B17 no binding seen
B18 no binding seen
B19 no binding seen
B20 no binding seen
B21 no binding seen
B22 > 155 nM
B23 no binding seen
B24 no binding seen
B25 no binding seen
B26 no binding seen
B27 no binding seen
B28 no binding seen
B29 no binding seen
B30 no binding seen
B31 no binding seen
B32 no binding seen
B33 no binding seen
B34 no binding seen
B35 no binding seen
B36 no binding seen
B37 no binding seen

Reprinted at random: 2 records from the list, in no set order.
Apparent Kd, inactive:
B4 no binding seen
B34 no binding seen
